Here are results for 1 molecule from patent US9408922B2, “Anti-tofacitinib antibodies and uses thereof for drug monitoring” (Pfizer Inc., priority 2012, dated 2016).

This data set is described as follows: Standard curve with tofacitinib, ELISA (Example 10). Particulars: Biotinylated Tofacitinib 1 ng/mL; antibody dilution 4,000 (6D9.A8), 22,000 (12D4.G6). Format: binding. An excerpt: FIG. 4 is a graph depicting optimal dilution ranges of select monoclonal antibodies of the invention, e.g., 6D9.A8 (open circles) and 12D4.G6 (open squares) as determined by ELISA.

B1: 12D4.G6: mouse monoclonal anti-tofacitinib antibody; VH SEQ ID NO:12, VL SEQ ID NO:4 (antibody, listed as Mus musculus, V domains shown)
VH: QVQLKESGPGLVAPSQSLSITCTVSGFSLSIYSVHWVRQPPGKGLEWLGMIWGGGNTDYNSVLKSRLSISKDNSKSQVFLKVNSLQTDDTAMYYCARIYYGIFWGQGTLVTVSA
VL: NIVMTQSPKSMSMSVGERVTLTCKASENVVTYVSWYQQKPEQSPKLLIYGASNRYTGVPDRFTGSGSATDFTLTISSVQAEDLADYHCGQGYSYPYTFGGGTKLEIKR
Take B1: the “Standard Range” value is 5 to 405 ng/mL.
